From patent publication US20240067748A1
No constants are given. Whether binding was seen depends on the method and setting. Some results given as binding are weak or reduced against the parent protein; the word gives no strength.

Columns and labels:
[1] = target: monkey Trop2 protein (Sino Biological, #90893-C08H) (monkey); assay: BLI, Octet RED96, AHC sensor
[2] = target: monkey Trop2 on CHO-K1 cells (monkey); assay: flow cytometry on CHO-K1/monkey Trop2 cells
[3] = target: monkey Trop2 protein (Sino Biological, #90893-C08H) (monkey); assay: SPR, Biacore T200, antigen immobilised on CM5 chip

| Binder | binding [1] | binding [2] | binding [3] |
| --- | --- | --- | --- |
| PR001153 (antibody, human IgG1, kappa, V domains shown) VH: QVQLQESGPGLVKPSGTLSLTCAVSGGSISSSNWWSWVRQPPGKGLEWIGEIYHDGSTDYNPSLKSRVIISVDKSKNQFSLKVRSVTAADTAVYYCARDNWGFDYWGQGTLVTVSS VL: EIVLTQFPGTLSLSPGERATLSCRSSQSVSSSYLAWYQQKPGQAPRLLISGASSRATGIPDRFSGSGSGTDFTLTISRLEPEDFAVYYCQQYGSSPRTFGQGTKVEIKR | binds | – | – |
| PR001128 (antibody, human IgG1, kappa, V domains shown) VH: QVQLQESGPGLVKPSGTLSLTCAVSGGSISSSNWWSWVRQPPGKGLEWIGEIFHSGTTYYNPSLKSRVTILVDKSKNQFSLKLSSVTAADTAVYYCARDNTKSWDHFDHWGQGTLVTVSS VL: EIVLTQSPATLSLSPGERATLSCRASQSVGSYLAWYQQKPGQAPSLLIYDASNRATGIPARFSGSGSGTDFTLTISSLEPEDFAVYYCQQRTNWYTFGQGTKLEIKR | binds | binds | – |
| PR001130 (antibody, human IgG1, kappa, V domains shown) VH: QVQLQESGPGLVKPSGTLSLTCAVSGDSISSHNWWSWVRQPPGKGLEWIGEIYHSGITSYNPSLKSRVTISVDKSKNQFSLKLNSVTAADTAMYYCARGSGVISYFDYWGQGTLVTVSS VL: DIQMTQSPSTLSASVGDRVTITCRASQSIGNWLAWYQQKPGKAPKLLIYKASSLESGVPSRFSGSGSGTEFTLTISSLQPDDFATYYCQQYDSYSPITFGQGTRLEIKR | binds | binds | – |
| PR001142 (antibody, human IgG1, kappa, V domains shown) VH: QVQLQESGPGLVKPSGTLSLTCAVSGDSISSNNWWSWVRQPPGKGLEWIGEIYPGGNPNYNPSLKSRVTISVDKSKNQFSLKLNSVTAADTAVYYCARGSGVISYFDYWGQGTLVTVSS VL: DIQMTQSPSTLSASVGDRVTITCRASQSIGHWLAWYQQKPGKAPKLLIYKASSLESGVPSRFRGSGSGTEFTLTISSLQPDDFATYYCQQYSSYSPITFGQGSRLEIKR | – | binds | binds |
| PR001138 (antibody, human IgG1, kappa, V domains shown) VH: QVQLQESGPRLVKPSETLSLTCAVSGYSISSGYYWGWIRQSPGMGLEWIAYIYHDGSTYCNPSLKSRVTMSVDTSKNQFSLKLRSVTAADTAVYYCARDGAAAPFDYWGQGTLVTVSS VL: DIQMTQSPSTLSASVGDRVTITCRASQSISNWLAWYQQKPGKAPKVLIYKASSLESGVPSRFSGSGSGTEFTLTINSLQPDDFATYYCQQYDSYSITFGQGTRLEIKR | binds | – | – |
| PR001150 (antibody, human IgG1, kappa, V domains shown) VH: QVQLVESGGGVVQPEKSLRLSCAASGFTFSHYGMHWVRQVPGKGLEWVAVIWYDGIKRYYVESVKGRFTISRDNSKNTLYLQMNRLRAEDTAVYYCARDGGFGESNYYGLDVWGQGTTVTVSS VL: DIQLTQSPSFLSASVGDRVTITCRASQGINSYLGWYQRKPGKAPKLLIYIASTLQSGVPSRFSGSGSGTEFTLTISSLQPEDFATYYCQQLNSYPYTFGQGTKLEIKR | binds | – | – |
| PR001132 (antibody, human IgG1, kappa, V domains shown) VH: QVELVESGGGVVQPGRSLRLSCGASGFTFSSYNMYWVRQAPGKGLEWVAGIWDDGNNKYYANSVKGRFTISRDNSKNTLYLQMNSLRTEDTALYYCAKDGWGSYGEYFQHWGQGTLVTVSS VL: DIQMTQSPSSLSASVGERVTITCRASQNINSYLSWYQQKPGKAPKLLIYAASSLQNGVPSRFSGSGSGTDFTLTISSLQPEDFATYYCQQSFSTPPITFGQGTRLEIKR | binds | – | – |
| PR001133 (antibody, human IgG1, kappa, V domains shown) VH: QVNLVESGGGVVQPGRSLKLSCAASGFTFSSYGMHWVRQAPGKGLEWVALIWSDGTNRYYTESVKGRFTISRDNSKNTLSLQMKSLRAEDTAVYYCAKDGWGTYGEYFQHWGQGTLVTVSS VL: DIQMTQSPSSLSASVGDRVTITCRASQNINSYLHWYQQKPGKAPKLLIYAASSLQSGVPSRFSGSGSGTDFTLTISSLQPEDFAIYYCQQSYSIPPITFGQGTRLEIKR | – | binds | – |

Now from value to binder:

| binding [1] | binding [2] | binding [3] | Binder |
| --- | --- | --- | --- |
| binds | – | – | PR001159 (antibody, human IgG1, kappa, V domains shown) VH: QVQLVESGGGVVQPGRSLRLSCEASGFTFSHYGMHWVRQAPGKGLEWVAVIWYDGIKTNYVESVKGRFTISRDNSKNTLNLQMNRLRAEDTAVYYCARDGGFGESNYYGLDVWGQGTTVTVSS VL: DIQLTQSPSFLSASVGDRVTITCRASQGISSYLGWYQQKPGKAPKLLIYIASTLQSGVPSRFSGSGSGTEFTLTISSLQPEDFATYYCQQLNSYPYTFGQGTKLEIKR |
| binds | binds | binds | PR001165 (antibody, human IgG1, kappa, V domains shown) VH: QVQLVESGGGVVQPGRSLRLSCEASGFTFSHYGMHWVRQAPGKGLEWVAVIWYDGIKTYYVESVKGRFTISRDNSKNTLNLQMNRLRAEDTAVYYCARDGGFGESNYYGLDVWGQGTTVTVSS VL: DIQLTQSPSFLSASVGDRVTITCRASQGISSYLGWYQQKPGKAPKLLIYIASTLQSGVPSRFSGSGSGTEFTLTISSLQPEDFATYYCQQLNSYPYTFGQGTKLEIKR |
| binds | binds | binds | PR001166 (antibody, human IgG1, kappa, V domains shown) VH: QVQLQESGPGLVKPSETLSLTCAVSGYSISSGYFWAWIRQPPGKGLEWIGSIYHSGRTHYNPSLKSRVIISLDTSKNQFSLKLRSVTAADSAVYYCAREGYASGSYYWGQGTLVTVSS VL: EIVMTQSPATLSVSPGERATLSCRSSQSVNNYLAWFQQKPGQAPRLLIYDSSTRATGIPARFSGSGSGTEFTLTISSLQSEDFAFYFCQQYENWPLTFGGGTKVEIKR |
| binds | – | – | PR001170 (antibody, human IgG1, kappa, V domains shown) VH: QVQLQESGPGLVKPSETLSLTCAVSGYSINSGYFWAWIRQPPGMGLEWIGSIYHSGRTHYNPSLKSRVIISLDTSKNQFSLKLRSVTAADSAVYYCAREGYASGSYYWGQGTLVTVSS VL: EIVMTQSPATLSVSPGERATLSCRSSQSVNSYLAWFQQKPGQAPRLLIYDSSTRATGIPARFSGSGSGTEFTLTISSLQSEDFAFYFCQQYENWPLTFGGGTKVEIKR |
